The series has as its system horseradish peroxidase (HRP). In words: Inhibition of ABTS turnover catalyzed by a high amount of HRP (sandwich ELISA, CAM-induced Jurkat cell lysate). Type of series: biochemical, horseradish (Armoracia rusticana). The settings on record: high concentrations of 0.5 to 0.25M. The method, then:
FIG. 2, A and B: inhibition of ABTS turnover catalyzed by a high amount of HRP detection of a high amount of mono- and oligosomes in Jurkat cells; further details are given in Example 1. All other designations are the same as in FIG. 1. Jurkat cells were cultured and subsequently divided into two culture dishes. In one dish the cells were treated with 1 μg/ml CAM (Camptothecin) to induce apoptosis, thereby leading to the formation of mono and oligonucleosomes, the target antigen. After an incubation period of 4 hours the cells of both dishes were harvested separately by centrifugation, lysed by the detergent contained in the Cell Death Detection ELISA Plus (Roche Diagnostics GmbH, Mannheim, Germany; Catalog No. 1920685), and frozen. The mono and oligonucleosomes consisting of DNA and histones H2A, H2B, H3 and H4 were detected in thawed cell homogenate by way of a sandwich ELISA. Antigen was captured with a first monoclonal antibody against histone from the Cell Death Detection ELISA Plus kit. The antibody was coated onto the walls of a 96-well microplate. The detection antibody was a DNA-specific polyclonal antibody conjugated with horseradish peroxidase. Non-induced and CAM-induced Jurkat cells yielded low and high amounts of target antigen, thereby leading to low and high absolute amounts of horseradish peroxidase enzymatic activity in the respective wells. […]

We go through 2 compounds from patent US9453842B2, “Inhibition of peroxidase enzymatic activity” (Roche Molecular Systems, Inc., priority 2006, dated 2016).

For the compound `O=C(O)C(=O)O` [oxalic acid], the “Precipitation of the substrate” value is “cause precipitation of the substrate”.
In the case of `O=S(=O)(O)O` [sulfuric acid], the “Precipitation of the substrate” value is listed as “cause precipitation of the substrate”.
